According to paper PMC4849470:
These are yes or no findings as the source states them, for the method shown. Binding seen in cells or lysates may run through a third protein. Some results given as binding are weak or reduced against the parent protein; the word gives no strength. Tags and fused reporters may be left off the sequences shown.

Sequences of proteins named here, by UniProt entry; tags and fusion partners are left off.
UniProt Q9Y2J4: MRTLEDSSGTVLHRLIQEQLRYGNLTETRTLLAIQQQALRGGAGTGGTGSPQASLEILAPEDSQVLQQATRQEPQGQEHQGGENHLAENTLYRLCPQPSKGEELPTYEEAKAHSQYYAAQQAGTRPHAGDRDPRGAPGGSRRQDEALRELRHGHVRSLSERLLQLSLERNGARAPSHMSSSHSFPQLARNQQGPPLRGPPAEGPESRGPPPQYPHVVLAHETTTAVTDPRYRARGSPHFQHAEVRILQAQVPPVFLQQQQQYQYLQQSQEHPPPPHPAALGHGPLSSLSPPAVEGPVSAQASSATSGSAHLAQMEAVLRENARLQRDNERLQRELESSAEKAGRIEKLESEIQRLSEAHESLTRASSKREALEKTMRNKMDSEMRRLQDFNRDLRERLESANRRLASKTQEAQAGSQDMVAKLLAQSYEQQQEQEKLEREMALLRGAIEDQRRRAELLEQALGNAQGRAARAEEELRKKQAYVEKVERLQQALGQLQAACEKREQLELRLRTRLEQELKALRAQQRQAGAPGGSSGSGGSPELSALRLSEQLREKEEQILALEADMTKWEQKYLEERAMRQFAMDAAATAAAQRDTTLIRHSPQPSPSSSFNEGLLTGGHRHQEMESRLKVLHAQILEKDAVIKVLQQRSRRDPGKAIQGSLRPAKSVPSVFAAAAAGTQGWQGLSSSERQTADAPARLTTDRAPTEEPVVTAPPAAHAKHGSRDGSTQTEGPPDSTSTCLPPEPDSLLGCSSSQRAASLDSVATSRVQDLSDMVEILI

Target: endogenous USP9x protein (human (endogenous in HEK293T)) (UniProt Q93008)
Assay: co-IP; HA-tagged AMOT, AMOT-L1 or AMOT-L2 expressed in cells; IP of endogenous USP9x (Supplementary Figure S2a)

In the case of “HA-tagged AMOT-L2 (from UniProt Q9Y2J4 1-779)”, the binding is reported as “binds”.

B1: HA-tagged AMOT-L1 (protein, UniProt Q8IY63 1-956)
chain: MWRAKLRRGTCEPAVKGSPSACYSPSSPVQVLEDSTYFSPDFQLYSGRHETSALTVEATSSIREKVVEDPLCNFHSPNFLRISEVEMRGSEDAAAGTVLQRLIQEQLRYGTPTENMNLLAIQHQATGSAGPAHPTNNFSSTENLTQEDPQMVYQSARQEPQGQEHQVDNTVMEKQVRSTQPQQNNEELPTYEEAKAQSQFFRGQQQQQQQQGAVGHGYYMAGGTSQKSRTEGRPTVNRANSGQAHKDEALKELKQGHVRSLSERIMQLSLERNGAKQHLPGSGNGKGFKVGGGPSPAQPAGKVLDPRGPPPEYPFKTKQMMSPVSKTQEHGLFYGDQHPGMLHEMVKPYPAPQPVRTDVAVLRYQPPPEYGVTSRPCQLPFPSTMQQHSPMSSQTSSASGPLHSVSLPLPLPMALGAPQPPPAASPSQQLGPDAFAIVERAQQMVEILTEENRVLHQELQGYYDNADKLHKFEKELQRISEAYESLVKSTTKRESLDKAMRNKLEGEIRRLHDFNRDLRDRLETANRQLSSREYEGHEDKAAEGHYASQNKEFLKEKEKLEMELAAVRTASEDHRRHIEILDQALSNAQARVIKLEEELREKQAYVEKVEKLQQALTQLQSACEKREQMERRLRTWLERELDALRTQQKHGNGQPANMPEYNAPALLELVREKEERILALEADMTKWEQKYLEESTIRHFAMNAAATAAAERDTTIINHSRNGSYGESSLEAHIWQEEEEVVQANRRCQDMEYTIKNLHAKIIEKDAMIKVLQQRSRKDAGKTDSSSLRPARSVPSIAAATGTHSRQTSLTSSQLAEEKKEEKTWKGSIGLLLGKEHHEHASAPLLPPPPTSALSSIASTTAASSAHAKTGSKDSSTQTDKSAELFWPSMASLPSRGRLSTTPAHSPVLKHPAAKGTAEKLENSPGHGKSPDHRGRVSSLLHKPEFPDGEMMEVLI
With B1 the binding was “binds”.
